Reference: US20220354892A1
These are yes or no findings as the source states them, for the method shown. Some results given as binding are weak or reduced against the parent protein; the word gives no strength. Blank lines part the entries; values can stand above or below the binder they belong to.

By UniProt entry, the sequences of proteins in these tests, tags left out. Residues count along the entry.
UniProt Q02223, residues 1-54: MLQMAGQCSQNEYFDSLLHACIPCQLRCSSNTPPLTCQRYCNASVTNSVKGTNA

Molecular target: Dylight-650 labelled recombinant BCMA (human) (UniProt Q02223)
Assay: flow cytometry of CAR T cells stained with labelled recombinant BCMA

binding: binds
B1: BCMA/TACI Dual Binder #1 CAR (CAR only) (protein)
chain: DIQMTQSPSSLSASVGDRVTITCRASQSISSYLNWYQQKPGKAPKLLIYAASSLQSGVPSRFSGSGSGTDFTLTISSLQPEDFATYYCQQSHIAPWTFGGGTKVEIKGSTSGSGKPGSGEGSTKGQVQLVQSGAEVKKPGSSVKVSCKASGGTFADYAISWVRQAPGQGLEWMGGIIPILGRANYAQKFQGRVTITADESTSTAYMELSSLRSEDTAVYYCARDRDSTSLPYNHYYMDVWGKGTTVTVSSGSLDNEKSNGTIIHVKGKHLCPSPLFPGPSKPFWVLVVVGGVLACYSLLVTVAFIIFWVRSKRSRLLHSDYMNMTPRRPGPTRKHYQPYAPPRDFAAYRSLRVKFSRSADAPAYQQGQNQLYNELNLGRREEYDVLDKRRGRDPEMGGKPRRKNPQEGLYNELQKDKMAEAYSEIGMKGERRRGKGHDGLYQGLSTATKDTYDALHMQALPPR

binding: binds
B2: BCMA/TACI Dual Binder #3 CAR (CAR only) (protein)
chain: DIQLTQSPSSLSASVGDRVTITCRASQSISLYLNWYQQKPGKAPKLLIYAASSLQSGVPSRFSGSGSGTDFTLTISSLQPEDFATYYCQQVAVAPWTFGGGTKVEIKGSTSGSGKPGSGEGSTKGQVQLVQSGAEVKKPGSSVKVSCKASGGTFEHYAISWVRQAPGQGLEWMGGIIPILGRANYAQKFQGRVTITADESTSTAYMELSSLRSEDTAVYYCARDRSWEGSPYMYYGMDVWGQGTMVTVSSGSLDNEKSNGTIIHVKGKHLCPSPLFPGPSKPFWVLVVVGGVLACYSLLVTVAFIIFWVRSKRSRLLHSDYMNMTPRRPGPTRKHYQPYAPPRDFAAYRSLRVKFSRSADAPAYQQGQNQLYNELNLGRREEYDVLDKRRGRDPEMGGKPRRKNPQEGLYNELQKDKMAEAYSEIGMKGERRRGKGHDGLYQGLSTATKDTYDALHMQALPPR
